# The campaign covered roughly 340,000 compounds. About 170 (0.05%) were called active. The shares of active, inactive and inconclusive entries below differ from those in the screen. Calls follow the shape of the dose curve; as a rule, active = well fitted inhibition curve with a large enough effect in the signal ratio, with a control signal flat (not every such curve was filed as active); inconclusive = small, poorly fitted or top-dose-only effect, or effect the other way, or a change in a side signal; inactive = flat fitted curve, though single readings scatter; the % refers to the signal ratio. Potencies of inconclusive entries are doubtful fits and often do not repeat.
# Test: qHTS Assay to Find Inhibitors of Chronic Active B-Cell Receptor Signaling;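 as to activity change, negative = inhibition: plate controls were basal doxycycline-induced cells for no effect and cells given 10 µM MG132 for full effect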
# Details: ABC-DLBCL IkBa-CBG/CBR reporter, luminescence ratio (green luciferase fused to IkBa over red control in TMD8 lymphoma cells), 4 h; activity change, negative = inhibition: at 46.1 µM (top of the series)
# Summary of the method: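 Concentration-response series (up to 46 uM) were applied to TMD8 dual-reporter cells for 4 h at 37C with doxycycline. Green/red ratio, after filter-overlap correction, defined %Activity; red signal alone was normalised to basal cells and zero luminescence.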
# Potency is read from the fitted curve at half-maximal effect.
SMILES,"activity change, negative = inhibition",Potency
CSCCC(NC(=O)COc1ccccc1)C(=O)N1CCCCCC1 (stereo not drawn),inactive,–
CC(C)(C)C(=O)NC(=S)Nc1ccc(S(=O)(=O)Nc2nccs2)cc1,inactive,–
Cc1ccc(Nc2cc(C)nc(NCc3ccccc3)n2)cc1,–,"inconclusive: 18.4 µM [falling, single point]"
CCOc1cc(C(=O)N/N=C/c2ccsc2)cc(OCC)c1OCC,inconclusive: -15.2%,–
CC1CCN(S(=O)(=O)c2cc(C(=O)N3CCN(c4ncccn4)CC3)ccc2Br)CC1,inactive,–
Oc1ccc(NCc2ccccc2OCc2ccccc2)cc1,–,"inconclusive: 20.6 µM [falling, single point]"
Cc1cccc(NC(=O)c2ccccc2C(=O)O)c1,inconclusive: -0.643%,–
COC(=O)c1ccc(C23CC4(C2)[C@H](CN(Cc2ccc(C(F)(F)F)cc2)[C@@H]4c2ccccc2)C3c2ccc(C(F)(F)F)cc2)cc1 (stereo partly drawn),inconclusive: -3.89%,–
CSc1ccc(/C=N/Nc2nc(C)cc(=O)[nH]2)cc1,–,"inconclusive: 15.8 µM [falling, partial curve]"
O=C(CSCc1ccc([N+](=O)[O-])cc1)NC1CCCCCC1,inconclusive: -8.31%,–
O=S(=O)(c1cccc2ccccc12)N1CCSC1,inactive,–
O=C(COC(=O)COc1cccc(C(F)(F)F)c1)NC1CCCC1,inconclusive: 0.0826%,–
CCCCn1c(SCC(N)=O)nc2c(sc3ccccc32)c1=O,inconclusive: 24.3%,–
CCOC(=O)Nc1sc2c(c1C#N)CCC(C)C2 (stereo not drawn),inactive,–
CCOC(=O)c1c(CSc2ccccc2)n(C)c2cc(Br)c(O)c(CN(C)C)c12,inconclusive: 27.2%,–
c1cn2c(NC3CCCCC3)c(-c3ccc(SC4CCCCC4)cc3)nc2cn1,inactive,–
O=C(/C=C/Nc1ccccc1)c1ccccc1,–,"inconclusive: 4.61 µM [falling, partial curve]"
COc1ccc2[nH]c3c(c2c1)CCN1C(=O)C(CC(=O)NCCc2ccccn2)C[C@H](C(=O)N2CCCCC2)[C@@]31C (stereo partly drawn),inconclusive: -6.11%,–
COc1ccc(C(C)=O)cc1COC(=O)CNC(=O)c1cc(C)cc(C)c1,inconclusive: 9.61%,–
COc1ccc(/C=N/Nc2nncc3ccccc23)c(OC)c1,–,"inconclusive: 23.1 µM [falling, single point]"
Cc1cc(C(=O)NNC(=S)NCC(C)C)cs1,inconclusive: -17.5%,–
CC(C)NC(=O)N(O)C1N(Cc2ccc3c(c2)OCO3)C(=S)SC1(C)C (stereo not drawn),inactive,–
CCc1ccccc1S(=O)(=O)Cc1ccc(C(=O)N2CCN(c3ccccc3OC)CC2)o1,inconclusive: -5.06%,–
Cn1ncc2c(Nc3cccc(C#N)c3)ncnc21,inconclusive: -22.7%,–
Nn1c(SCc2ccc(F)cc2)nnc1-c1ccccn1,–,"inconclusive: 22.4 µM [falling, single point]"
C[C@H](NC(=O)c1nc[nH]c1C(=O)N[C@@H](Cc1ccccc1)C(=O)OCc1ccccc1)c1ccccc1,–,"inconclusive: 14.1 µM [rising, partial curve, poor fit]"
O=C(N[C@@H](Cc1ccc(O)cc1)C(=O)O)c1ccc(C(F)(F)F)cc1,inactive,–

# As entered above.
# Value for O=C(CSCc1ccc([N+](=O)[O-])cc1)NC1CCCCCC1 under activity change, negative = inhibition: inconclusive: -8.31%
# Value for Cc1ccc(Nc2cc(C)nc(NCc3ccccc3)n2)cc1 under Potency: inconclusive: 18.4 µM [falling, single point]

# More entries follow:

SMILES,"activity change, negative = inhibition",Potency
COc1ccc(-c2onc(C)c2-c2ccc(C(=O)OC(C)C)o2)c(O)c1,–,"inconclusive: 6.51 µM [falling, full curve]"
COc1ccccc1N(CC(=O)NC1CCCC1)S(=O)(=O)c1ccc(C)cc1,inconclusive: -0.884%,–
COc1cc(C(=O)Nc2cc(C(F)(F)F)ccc2-n2cncn2)cc(OC)c1OC,inconclusive: 4.8%,–
CCC(C)NCCCCOc1ccc(Cl)cc1C (stereo not drawn),inconclusive: -14.9%,–
CCc1ccc(-c2nc(CN3CCC(C(=O)NCCN(CC)c4ccccc4)CC3)c(C)o2)cc1,inactive,–
Oc1ccccc1-c1nc(NCC2CCCO2)c2ccccc2n1 (stereo not drawn),inconclusive: 8.7%,–
CC(=O)Nc1ccc(/C(C)=N/Nc2nc(Nc3cccc4ccccc34)nc(N3CCOCC3)n2)cc1,inconclusive: -17.6%,–
O=C(Nc1ccc2oc(-c3ccccc3)nc2c1)c1cc(-n2cnnc2)ccc1Cl,inconclusive: 9.96%,–
O=C(O)c1cccc(OCc2ccccc2Cl)c1,–,"inconclusive: 20 µM [falling, single point]"
CCOc1cc(NC(=S)NCC2CCCO2)c(OCC)cc1NC(=O)c1cccc(C)c1 (stereo not drawn),inactive,–
O=C(CCC1COc2ccccc2O1)Nc1ccc(Cl)cn1 (stereo not drawn),–,"inconclusive: 29.1 µM [rising, single point]"
COc1ccc(/C=N/OCC(=O)N2CCCC2)c(OC)c1,inconclusive: -23.8%,–
CCCNC(=O)c1ccc2c(=O)c(O)c(-c3ccsc3)[nH]c2c1,inconclusive: 1.26%,–
COc1cc(OC)cc(C(=O)Nc2nc3ccc(S(C)(=O)=O)cc3s2)c1,–,"inconclusive: 7.94 µM [falling, partial curve, poor fit]"
CCOc1cccc(OCCOCCN2CCCC2)c1,inconclusive: 9.45%,–
COc1ccc([N+](=O)[O-])cc1NC(=O)COC(=O)/C=C/c1ccco1,inconclusive: 8.19%,–
CCOC(=O)CNC(=O)C(NC(=O)C1CCC(C)CC1)C(C)CC (stereo not drawn),inconclusive: 3.63%,–
CCN(CC(=O)Nc1ccc(C)c(S(=O)(=O)N2CCOCC2)c1)Cc1ccccc1,inactive,–
Cc1nonc1CN(C)C(=O)c1ccc(OC2CCN(Cc3ccccn3)CC2)cc1,inconclusive: 1.05%,–
O=c1c2sccc2nc(SCc2cc(=O)n3cc(Br)ccc3n2)n1Cc1ccccn1,inactive,–
Cc1ccccc1/C=C/C12NC(=O)CN1c1ccccc1C2(C)C (stereo not drawn),inconclusive: 1.62%,–
CCCCNC(=S)N/N=C/c1cc(C)ccc1C,inconclusive: -2.94%,–
CCN1CCN(Cc2ccc(NC(=O)c3ccc(C)c(NC(=O)c4ccc5n[nH]nc5c4)c3)cc2C(F)(F)F)CC1,inconclusive: -14.1%,–
COc1ccc(Cl)cc1NC(=O)NC1CCCCC1,inconclusive: -4.51%,–
CC(C)OC(=O)C1C(=O)CC(C)(O)C(C(=O)OC(C)C)C1c1cccc([N+](=O)[O-])c1 (stereo not drawn),inactive,–
Cc1cc(=O)n2[nH]c(-c3ccco3)nc2n1,–,"inconclusive: 9.2 µM [falling, partial curve]"

# Source: PubChem BioAssay AID493014 (National Center for Advancing Translational Sciences (NCATS), 2011)
